Results of single-concentration screens

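Assay of Toxoplasma gondii numbers, read through their beta-galactosidase reporter with a colour substrate. Concentration: 50 µM. Higher reads as fewer parasites (inferred from which compounds were picked for retests). Size under these conditions: about 18,000 compounds, about 170 of them at 50% or above in at least one test.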

Values are the deposited “Percent Effect”, in %.
The record does not define 0% and 100%; most values in the screen are far below 50% and negative numbers occur (in some assays of this library far below -100).
The compounds are a random part of those screened.

For CC(CN1CCOCC1)OC(=O)c1ccccc1F (configuration not stated) the result was 1.515%. CS(=O)(=O)N1CCC(NCC(F)F)CC1 gave 42.87%. Result for COc1cccc(C2(F)CCNC2)c1 (configuration not stated) was 18.55%. CC(c1ccccn1)N(C)C(=O)c1nccnc1N (configuration not stated) gave -12.4%. CN1CCC(NC(=O)c2cc3ccccc3s2)C1=O (configuration not stated) read 52.45%. For CNC(=O)N(C)C(C)C1CCN(C)CC1 (configuration not stated) the result was 12.1%. CN1CCC(C(=O)N2C[C@@H](CO)[C@H](N(C)C)C2)CC1 read -10.09%. With O=C(COc1ccccc1Br)Nc1c[nH]c(=O)[nH]c1=O the screen gave 0.1452%.

Result for CCCOC(=O)c1csc(NC(C)=O)n1 was -5.14%. Cc1cccc(NC(=O)C2CCCN(CCC#N)C2)n1 (configuration not stated) gave 31.73%. Nc1ncccc1CN1C[C@@H]2CCC[C@H](C1)C(=O)N2 gave 18.42%. COCCN(CCC#N)Cc1nccn1C read -20.65%. CSC(C)(C)CNC(=O)NCCC1CCCO1 (configuration not stated) gave -5.687%. With CCN(CC)C(=O)CSc1ncn(-c2ccccc2)n1 the screen gave 4.027%. Cn1cc(S(=O)(=O)NCC(N)c2ccccc2)cn1 (configuration not stated) read -5.676%. For Nc1cncc(-c2ccc(CN3CCCCC3)cn2)c1 the result was -2.159%.

Result for CCc1ccc(NC(=O)CN2CC[C@@H](N)C2)cc1 was -0.027%. For Cc1cc(=O)oc(C)c1C(=O)N1CCCCC1 the result was -4.79%. For CC(C)(C)C(=O)Nc1nc(-c2ccncc2)n[nH]1 the result was -1.823%. CCC(C)NC(=O)CNC(=O)Cn1cncn1 (configuration not stated) gave -13.2%. For NC(=O)c1ccc(OCC(=O)c2ccccc2F)cc1 the result was -5.248%. For CN1CCN(CCCNC(=O)c2ccccc2Cl)CC1 the result was -10.42%. Result for Cn1c(N)c(N2CCOC(CO)C2)c(=O)[nH]c1=O (configuration not stated) was -2.629%. With Cn1ccnc1CN1CCNCC1 the screen gave -10.48%.

With CCN(c1ccccc1)S(N)(=O)=O the screen gave -1.267%. NC(=O)CC(NC1CCCC1)C1CCOCC1 (configuration not stated) read -21.3%. CCCNC(=O)CCNC(=O)c1ccc(O)cc1C gave -3.627%. NC(=O)C1CCN(c2ccnc3cc(Br)ccc23)C1 (configuration not stated) gave -10.5%. CN(C)S(=O)(=O)N1CCCC1COc1ccccc1 (configuration not stated) gave 18.45%. CN(Cc1ccccc1)C(CN)C1CC1 (configuration not stated) gave -3.507%. Result for Cc1c[nH]c(C(C)NC(=O)c2ccc(CO)cc2)n1 (configuration not stated) was -6.701%. N#CC(c1cccc(Cl)c1)N1CCNCC1 (configuration not stated) read 3.228%.

Result for CC(=O)NCCNC(=O)c1ccc2oc(C)cc2c1 was -0.5348%. CCC(C)Oc1cccc(NC(=O)NCCO)c1 (configuration not stated) gave 5.845%. CC(=O)N(C)CC(=O)N1CCSCC1 gave 10.91%. With O=C(CN1CCCCCC1)NCCCn1ccnn1 the screen gave 5.607%. Result for CCc1nnsc1C(=O)Nc1cccc(C(N)=O)c1 was -13.79%. CSc1ncc(CNCC2(O)CCCNC2)n1C (configuration not stated) read 3.637%. CC(=O)N1CCC(C(=O)NCCc2nccn2C)CC1 gave -13.67%. For CN1CCC(NC(=O)c2n[nH]c3ccccc23)C1 (configuration not stated) the result was -18.77%.

Once more, the final 3:

structure	Percent Effect
CSc1ncc(CNCC2(O)CCCNC2)n1C (configuration not stated)	3.637%
CC(=O)N1CCC(C(=O)NCCc2nccn2C)CC1	-13.67%
CN1CCC(NC(=O)c2n[nH]c3ccccc23)C1 (configuration not stated)	-18.77%

Measurements from “University of Dundee, Small-Polar-MMV Screening Library” (2021), ChEMBL document CHEMBL3988442.